Reference: PMC6611850
These are yes or no findings as the source states them, for the method shown. Some binding calls cover weakened binding; strength is not graded here.

The molecules below were run against T. thermophilus RNAP beta' subunit with a C-terminal 10xHis tag (T. thermophilus HB8) (UniProt Q8RQE8) (assay: co-purification (Ni-NTA affinity, SEC), SDS-PAGE; RNAP captured from T. thermophilus HB8rpoC::10H lysate by the C-terminal 10xHis tag on β´ (500 mM NaCl), then SEC on Superdex 200 Increase).

binding | Molecule
binds | T. thermophilus RNAP beta subunit (from UniProt Q8RQE9 1-1119)
binds | T. thermophilus RNAP alpha subunit (protein, UniProt Q5SHR6 1-315) MLDSKLKAPVFTVRTQGREYGEFVLEPLERGFGVTLGNPLRRILLSSIPGTAVTSVYIEDVLHEFSTIPGVKEDVVEIILNLKELVVRFLNPSLQTVTLLLKAEGPKEVKARDFLPVADVEIMNPDLHIATLEEGGRLNMEVRVDRGVGYVPAEKHGIKDRINAIPVDAVFSPVRRVAFQVEDTRLGQRTDLDKLTLRIWTDGSVTPLEALNQAVEILREHLTYFSNPQAAAVAAPEEAKEPEAPPEQEEELDLPLEELGLSTRVLHSLKEEGIESVRALLALNLKDLKNIPGIGERSLEEIKEALEKKGFTLKE
binds | T. thermophilus RNAP omega subunit (protein, UniProt Q8RQE7 1-99) MAEPGIDKLFGMVDSKYRLTVVVAKRAQQLLRHGFKNTVLEPEERPKMQTLEGLFDDPNAVTWAMKELLTGRLVFGENLVPEDRLQKEMERLYPVEREE
